According to patent US7897543B2, “Spiroketal-substituted cyclic ketoenols” (Bayer CropScience AG, priority 2005, dated 2011):
Some entries share one result that the patent states for a list of compounds. At least one compound was matched to its structure with a doubt left.

Assays:
Assay type in all cases: in vivo
Myzus persicae [1] = experiment: Example Q: Myzus Test (spray treatment); details: application rate of 500 g/ha
Myzus persicae [2] = experiment: Example S: Myzus persicae Test (hydroponic treatment); details: concentration of 20 ppm
Solium multiflorum = experiment: Example V 1: Herbicidal Pre-Emergence Action; details: pre-emergence method at 320 g of a.i./ha
Setaria viridis [3] = experiment: Example V 2: Herbicidal Post-Emergence Action; details: post-emergence method at 320 g of a.i./ha
Protocol: (§1) Seeds of monocotyledonous and dicotyledonous weed and crop plants are placed into sandy loam in wood fibre pots, covered with soil and cultivated in a greenhouse under good growth conditions. 2-3 weeks after sowing, the test plants are treated at the one-leaf stage. The test compounds, formulated as wettable powders (WP), are then, in various dosages with a water application rate of 600 l/ha (converted), with 0.2% of wetting agent added, sprayed onto the green parts of the plants. After the test plants have been kept in the greenhouse under optimum growth conditions for about 3 weeks, the effect of the preparations is rated visually in comparison to untreated controls (herbicidal effect in percent (%): 100% effect=the plants have died, 0% effect=like control plants).

Echinocloa crus-galli = experiment: Example V 2: Herbicidal Post-Emergence Action; details: post-emergence method at 320 g of a.i./ha
Protocol: as §1

Lolium multiflorum = experiment: Example V 2: Herbicidal Post-Emergence Action; details: post-emergence method at 320 g of a.i./ha
Protocol: as §1

Setaria viridis [4] = experiment: Example V 1: Herbicidal Pre-Emergence Action; details: pre-emergence method at 320 g of a.i./ha

Row | SMILES | activity in % (Myzus persicae [1]) [%] | activity (kill in %) (Myzus persicae [2]) [%] | other results
1 | Cc1ccc(C)c(C2=C(O)C3(CCC4(CC3)OCC(C)O4)NC2=O)c1 (mixture of isomers) [Ex. I-1-a-28] | ≥ 90 |  | 
2 | Cc1ccc(C)c(C2=C(O)C3(CCC4(CC3)OC(C)C(C)O4)NC2=O)c1 (mixture of isomers) [Ex. I-1-a-29] | ≥ 90 |  | 
3 | Cc1cc(Br)cc(C)c1C1=C(O)C2(CCC3(CC2)OCC(C)CO3)NC1=O (mixture of isomers) [Ex. I-1-a-32] | ≥ 90 | ≥ 95 | 
4 | Cc1cc(Cl)cc(C)c1C1=C(O)C2(CCC3(CC2)OCC(C)CO3)NC1=O (mixture of isomers) [Ex. I-1-a-34] | ≥ 90 | ≥ 95 | 
5 | Cc1cc(Cl)cc(C)c1C1=C(O)C2(CCC3(CC2)OCCC(C)O3)NC1=O (mixture of isomers) [Ex. I-1-a-35] | ≥ 90 | ≥ 95 | 
6 | Cc1ccc(C)c(C2=C(O)C3(CCC4(CC3)OC(C)CC(C)O4)NC2=O)c1 (mixture of isomers) [Ex. I-1-a-36] | ≥ 90 | ≥ 95 | 
7 | Cc1ccc(C)c(C2=C(O)C3(CCC4(CC3)OCCC(C)O4)NC2=O)c1 (mixture of isomers) [Ex. I-1-a-37] | ≥ 90 |  | 
8 | CCc1cc(Br)cc(C)c1C1=C(O)C2(CCC3(CC2)OC(C)C(C)O3)NC1=O (mixture of isomers) [Ex. I-1-a-45] | ≥ 90 | ≥ 95 | activity (herbicidal effect in percent) (Solium multiflorum): ≥ 80%; activity (herbicidal effect in percent) (Setaria viridis [3]): ≥ 80%; activity (herbicidal effect in percent) (Echinocloa crus-galli): ≥ 80%; activity (herbicidal effect in percent) (Lolium multiflorum): ≥ 80%; activity (herbicidal effect in percent) (Setaria viridis [4]): ≥ 80%
9 | Cc1cc(Br)cc(C)c1C1=C(O)C2(CCC3(CC2)OCC(C)O3)NC1=O (mixture of isomers) [Ex. I-1-a-47] | ≥ 90 | ≥ 95 | 
10 | CCc1cc(Br)cc(C)c1C1=C(O)C2(CCC3(CC2)OCCC(C)O3)NC1=O (mixture of isomers) [Ex. I-1-a-60] | ≥ 90 |  | 
11 | Cc1ccc(C)c(C2=C(O)C3(CCC4(CC3)OCC(C)CO4)NC2=O)c1 (mixture of isomers) [Ex. I-1-a-62] | ≥ 90 |  | 
12 | COCC1COC2(CCCC3(C2)NC(=O)C(c2c(C)cc(C)cc2C)=C3O)O1 (mixture of isomers) [Ex. I-1-a-71] | ≥ 90 | ≥ 95 | activity (herbicidal effect in percent) (Solium multiflorum): ≥ 80%; activity (herbicidal effect in percent) (Setaria viridis [3]): ≥ 80%; activity (herbicidal effect in percent) (Echinocloa crus-galli): ≥ 80%; activity (herbicidal effect in percent) (Lolium multiflorum): ≥ 80%; activity (herbicidal effect in percent) (Setaria viridis [4]): ≥ 80%
13 | CCc1cc(C)cc(Br)c1C1=C(OC(=O)C(C)C)C2(CCC3(CC2)OC(C)C(C)O3)NC1=O (mixture of isomers) [Ex. I-1-b-5] |  |  | activity (herbicidal effect in percent) (Solium multiflorum): ≥ 80%; activity (herbicidal effect in percent) (Setaria viridis [4]): ≥ 80%
14 | CCc1cc(C)cc(Br)c1C1=C(OC(=O)COC)C2(CCCC3(C2)OCC(COC)O3)NC1=O (mixture of isomers) [Ex. I-1-b-11] | ≥ 90 | ≥ 95 | activity (herbicidal effect in percent) (Setaria viridis [3]): ≥ 80%; activity (herbicidal effect in percent) (Echinocloa crus-galli): ≥ 80%; activity (herbicidal effect in percent) (Lolium multiflorum): ≥ 80%
15 | CCOC(=O)OC1=C(c2c(C)cc(Cl)cc2C)C(=O)NC12CCC1(CC2)OCC(C)O1 (mixture of isomers) [Ex. I-1-c-17] | ≥ 90 | ≥ 95 | 
16 | CCOC(=O)OC1=C(c2c(C)cc(Cl)cc2C)C(=O)NC12CCC1(CC2)OC(C)C(C)O1 (mixture of isomers) [Ex. I-1-c-18] | ≥ 90 |  | 
17 | CCOC(=O)OC1=C(c2cc(C)ccc2C)C(=O)NC12CCC1(CC2)OC(C)C(C)O1 (mixture of isomers) [Ex. I-1-c-22] | ≥ 90 |  | 
18 | CCOC(=O)OC1=C(c2c(C)cc(Cl)cc2C)C(=O)NC12CCC1(CC2)OCCC(C)O1 (mixture of isomers) [Ex. I-1-c-30] | ≥ 90 |  | 
19 | CCc1cc(C)cc(Br)c1C1=C(O)C2(CCCC3(C2)OCCO3)NC1=O (racemic) [Ex. I-1-a-69] | ≥ 90 | ≥ 95 | activity (herbicidal effect in percent) (Solium multiflorum): ≥ 80%; activity (herbicidal effect in percent) (Setaria viridis [4]): ≥ 80%
20 | CCc1cc(C)cc(Br)c1C1=C(OC(=O)COC)C2(CCCC3(C2)OCCO3)NC1=O (racemic) [Ex. I-1-b-9] |  |  | activity (herbicidal effect in percent) (Solium multiflorum): ≥ 80%; activity (herbicidal effect in percent) (Setaria viridis [3]): ≥ 80%; activity (herbicidal effect in percent) (Echinocloa crus-galli): ≥ 80%; activity (herbicidal effect in percent) (Lolium multiflorum): ≥ 80%; activity (herbicidal effect in percent) (Setaria viridis [4]): ≥ 80%
21 | Cc1cc(C)c(C2=C(O)C3(CCC4(CC3)OCCCO4)NC2=O)c(C)c1 [Ex. I-1-a-18] | ≥ 90 |  | activity (herbicidal effect in percent) (Setaria viridis [3]): ≥ 80%; activity (herbicidal effect in percent) (Echinocloa crus-galli): ≥ 80%; activity (herbicidal effect in percent) (Lolium multiflorum): ≥ 80%
22 | Cc1cc(Cl)cc(C)c1C1=C(O)C2(CCC3(CC2)OCC(C)(C)CO3)NC1=O [Ex. I-1-a-20] | ≥ 90 |  | 
23 | CCc1cc(C)cc(C)c1C1=C(O)C2(CCC3(CC2)OCCO3)NC1=O [Ex. I-1-a-25] |  |  | activity (herbicidal effect in percent) (Setaria viridis [3]): ≥ 80%; activity (herbicidal effect in percent) (Echinocloa crus-galli): ≥ 80%; activity (herbicidal effect in percent) (Lolium multiflorum): ≥ 80%

Row | SMILES | activity in % (Myzus persicae [1]) [%] | activity (kill in %) (Myzus persicae [2]) [%] | other results
24 | Cc1cc(Br)cc(C)c1C1=C(O)C2(CCC3(CC2)OCCO3)NC1=O [Ex. I-1-a-26] | ≥ 90 | ≥ 95 | 
25 | Cc1cc(Br)cc(C)c1C1=C(O)C2(CCC3(CC2)OCC(C)(C)CO3)NC1=O [Ex. I-1-a-33] | ≥ 90 |  | 
26 | Cc1cc(C2=C(O)C3(CCC4(CC3)OCCO4)NC2=O)c(C)cc1Cl [Ex. I-1-a-41] | ≥ 90 |  | 
27 | CCc1cc(Cl)cc(Cl)c1C1=C(O)C2(CCC3(CC2)OCCO3)NC1=O [Ex. I-1-a-44] | ≥ 90 | ≥ 95 | activity (herbicidal effect in percent) (Solium multiflorum): ≥ 80%; activity (herbicidal effect in percent) (Setaria viridis [4]): ≥ 80%
28 | O=C1NC2(CCC3(CC2)OCCCO3)C(O)=C1c1ccc(Cl)cc1Cl [Ex. I-1-a-57] | ≥ 90 | ≥ 95 | 
29 | Cc1cc(Cl)cc(Cl)c1C1=C(O)C2(CCC3(CC2)OCC(C)(C)CO3)NC1=O [Ex. I-1-a-59] | ≥ 90 | ≥ 95 | 
30 | Cc1ccc(C)c(C2=C(O)C3(CCC4(CC3)OCC(C)(C)CO4)NC2=O)c1 [Ex. I-1-a-61] | ≥ 90 |  | 
31 | CCc1cc(Cl)cc(Cl)c1C1=C(OC(=O)COC)C2(CCC3(CC2)OCCO3)NC1=O [Ex. I-1-b-6] | ≥ 90 |  | 
32 | CCc1cc(Cl)cc(OC)c1C1=C(OC(=O)COC)C2(CCC3(CC2)OCCO3)NC1=O [Ex. I-1-b-7] | ≥ 90 |  | 
33 | CCOC(=O)OC1=C(c2c(C)cc(Br)cc2C)C(=O)NC12CCC1(CC2)OCCCO1 [Ex. I-1-c-10] | ≥ 90 |  | 
34 | CCOC(=O)OC1=C(c2c(C)cc(Br)cc2CC)C(=O)NC12CCC1(CC2)OCCO1 [Ex. I-1-c-14] | ≥ 90 |  | activity (herbicidal effect in percent) (Solium multiflorum): ≥ 80%; activity (herbicidal effect in percent) (Setaria viridis [4]): ≥ 80%
35 | CCOC(=O)OC1=C(c2cc(C)c(Cl)cc2C)C(=O)NC12CCC1(CC2)OCCO1 [Ex. I-1-c-21] | ≥ 90 |  | 
36 | CCOC(=O)OC1=C(c2c(Cl)cc(Cl)cc2CC)C(=O)NC12CCC1(CC2)OCCO1 [Ex. I-1-c-26] | ≥ 90 |  | activity (herbicidal effect in percent) (Setaria viridis [3]): ≥ 80%; activity (herbicidal effect in percent) (Echinocloa crus-galli): ≥ 80%; activity (herbicidal effect in percent) (Lolium multiflorum): ≥ 80%
37 | CCOC(=O)OC1=C(c2c(C)cc(Br)cc2C)C(=O)NC12CCC1(CC2)OCC(C)(C)CO1 [Ex. I-1-c-33] | ≥ 90 |  | 
38 | CCOC(=O)OC1=C(c2c(C)cc(C)cc2OC)C(=O)NC12CCC1(CC2)OCCCO1 [Ex. I-1-c-34] | ≥ 90 |  | 
39 | CCOC(=O)OC1=C(c2cc(C)ccc2C)C(=O)NC12CCC1(CC2)OCC(C)(C)CO1 [Ex. I-1-c-35] | ≥ 90 |  | 
40 | CCOC(=O)OC1=C(c2c(C)cc(Cl)cc2C)C(=O)NC12CCCC1(C2)OCCO1 (stereo not shown) [Ex. I-1-c-41] | ≥ 90 |  | 
41 | CCOC(=O)OC1=C(c2c(Br)cc(C)cc2CC)C(=O)NC12CCCC1(C2)OCCO1 (stereo not shown) [Ex. I-1-c-42] | ≥ 90 |  | activity (herbicidal effect in percent) (Solium multiflorum): ≥ 80%; activity (herbicidal effect in percent) (Setaria viridis [3]): ≥ 80%; activity (herbicidal effect in percent) (Echinocloa crus-galli): ≥ 80%; activity (herbicidal effect in percent) (Lolium multiflorum): ≥ 80%; activity (herbicidal effect in percent) (Setaria viridis [4]): ≥ 80%
42 | Cc1cc(Cl)cc(C)c1C1=C(O)C2(CCC3(CC2)OCCO3)OC1=O [Ex. I-2-a-1] | ≥ 90 |  | 
43 | Cc1cc(Cl)cc(C)c1C1=C(O)C2(CCC3(CC2)OCC(C)O3)OC1=O (stereo not shown) [Ex. I-2-a-3] | ≥ 90 |  | 
44 | Cc1cc(Cl)cc(C)c1C1=C(O)C2(CCC3(CC2)OCC(CCl)O3)OC1=O (stereo not shown) [Ex. I-2-a-4] | ≥ 90 |  | 
45 | Cc1cc(Cl)cc(C)c1C1=C(OC(=O)C(C)C)C2(CCC3(CC2)OCC(CCl)O3)OC1=O (stereo not shown) [Ex. I-2-b-3] | ≥ 90 |  | activity (herbicidal effect in percent) (Setaria viridis [3]): ≥ 80%; activity (herbicidal effect in percent) (Echinocloa crus-galli): ≥ 80%; activity (herbicidal effect in percent) (Lolium multiflorum): ≥ 80%
46 | Cc1cc(Cl)cc(C)c1C1=C(OC(=O)C(C)C)C2(CCC3(CC2)OCC(C)O3)OC1=O (stereo not shown) [Ex. I-2-b-4] | ≥ 90 |  | 
